Reference: patent US4713445A (priority 1983, dated 1987)

Assay: general procedure: Boc solid-phase peptide synthesis
Details: whole synthesis

## PEPTIDE1{H.P.F.H.[LeuRLeu].V.Y}$$$$V2.0
  difficulty met: lower incorporation of the isostere in the "L" case and less removal of the histidine with Na/NH3

Strings that start with PEPTIDE1 are HELM notation: dots part the residues, brackets hold end groups and non-standard residues.
